From PubChem BioAssay AID1347075 (National Center for Advancing Translational Sciences (NCATS), 2019)
In all, about 400,000 compounds went through this assay and about 5,500 (1.4%) were called active. This list was built around the results that the source calls inconclusive (neither active nor inactive); the mix of calls is not that of the screen. Calls follow the shape of the dose curve; as a rule, active = well fitted cell-killing curve with a large enough effect; inconclusive = small, poorly fitted or top-dose-only effect, or effect the other way; inactive = flat fitted curve, though single readings scatter. Potencies of inconclusive entries are doubtful fits and often do not repeat.

Assay: qHTS assay for MDR1-selective chemotherapeutics: Primary screen using the parental adenocarcinoma cell KB-3-1; also: nearly all actives have a fitted effect of over 60% in size
Conditions: KB-3-1 viability, CellTiter-Glo ATP luminescence, 72 h; activity change, negative = cytotoxic: at 46.1 µM (top of the series)
How it was run: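 Multi-concentration cytotoxicity screen in KB-3-1 cells grown in DMEM lacking phenol red with 10% FBS. After 72 h at 37 °C with compound, ATP-dependent luminescence was recorded.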
% is scaled to controls: 0 for no effect and ±100 for the full control effect; potency is read from the fitted curve at half-maximal effect.

| SMILES | Potency | activity change, negative = cytotoxic |
| --- | --- | --- |
| CC1(C)CC(=O)C(C2C3=C(CC(C)(C)CC3=O)Oc3c(Br)cc(Br)cc32)=C(O)C1 (stereo not given) | inconclusive: 29.1 µM [cytotoxic, single point] | – |
| COc1cccc(/C=C/C(=O)OCC(=O)c2ccc3c(c2)NC(=O)CO3)c1 | inconclusive: 20.6 µM [cytotoxic, partial curve, poor fit] | – |
| Cc1cc(NC(=O)CSc2nc3c([nH]c4ccccc43)c(=O)n2-c2cccc(Cl)c2)no1 | inactive | – |
| CCN1CCN(c2ccc(NC(=O)c3ccc(F)cc3)cc2Cl)CC1 | inconclusive: 2.59 µM [rising, partial curve, poor fit] | – |
| C/C(=N\NC(N)=O)c1ccc(Cl)cc1 | inconclusive: 29.1 µM [cytotoxic, single point] | – |
| CC1CN(c2nn3c(=O)c4ccccc4nc3c3ccccc23)CC(C)O1 (stereo not given) | inconclusive: 25.9 µM [cytotoxic, single point] | – |
| COCCCNc1nnc(Cc2ccc(Cl)cc2)c(=O)[nH]1 | inconclusive: 0.411 µM [cytotoxic, partial curve, poor fit] | – |
| COc1ccccc1C(=O)NCc1ccc2c(c1)CCN2C(=O)c1ccncc1 | inactive | – |
| CN(c1ccccc1)S(=O)(=O)c1cccc(NC(=O)c2ccc3ncsc3c2)c1 | inconclusive: 18.4 µM [cytotoxic, single point] | – |
| N#Cc1cc(C#N)c(SCC(=O)N2CC(=O)Nc3ccccc32)nc1N | inconclusive: 29.1 µM [cytotoxic, single point] | – |
| Cc1ccc(OCC(=O)OCC(=O)NC2CCCCCC2)cc1C | inactive | – |
| COc1cc2c(c(OC)c1OC)-c1ccc(OC)c(=O)cc1[C@@H](N(C)CC#CCO)CC2 | active: 0.0517 µM | – |
| CC(C)(C)c1ccc(C(=O)NNC(=O)Cc2cccc3ccccc23)cc1 | inactive | – |
| CCc1ccc(CNC(=O)C(CC)n2ccc3cc(S(=O)(=O)N4CCCCC4)ccc32)cc1 (stereo not given) | inactive | – |
| CN(C)/N=C/C=C1\CCC/C(=C\c2ccc(F)c(F)c2)C1=O | inconclusive: 18.4 µM [cytotoxic, single point] | – |
| CC(=O)Nc1ccc(SCC(=O)N2CCN(S(=O)(=O)c3ccccc3)CC2)cc1 | inconclusive: 32.6 µM [rising, single point] | – |
| CN1C/C(=C/c2ccsc2)C(=O)/C(=C/c2ccsc2)C1 | inconclusive: 23.1 µM [cytotoxic, single point] | – |
| O=[N+]([O-])c1ccc(C=C2c3ccccc3-c3ccccc32)cc1 | inactive | – |
| N#Cc1ccccc1OCC(=O)OCC(=O)NC1CCCCCC1 | inactive | – |
| Cc1ccc(CNC(=O)c2c(O)nc3ccccn3c2=O)cc1 | inactive | – |
| CCOC(=O)C1=C(N)Oc2cc(O)ccc2C1c1cccc(Cl)c1 (stereo not given) | inconclusive: 29.1 µM [cytotoxic, single point] | – |
| Cc1ccc(S(=O)(=O)Oc2cccc(/C=N/n3cnnc3)c2)cc1 | inconclusive: 32.6 µM [cytotoxic, single point] | – |
| COc1ccc(N=c2nc(-c3ccc(C)cc3)n(-c3ccccc3)s2)cc1 | inconclusive: 18.4 µM [cytotoxic, partial curve] | – |
| COc1cccc(CNC(=O)c2sc3nc4n(c(=O)c3c2C)CCC4)c1 | inconclusive: 0.0052 µM [rising, full curve] | – |

| SMILES | Potency | activity change, negative = cytotoxic |
| --- | --- | --- |
| CCCC1c2ccsc2CCN1C(=S)NC (stereo not given) | – | inconclusive: 35.8% |
| O=C(c1ccc(CS(=O)c2ccccc2Cl)o1)N1CCN(c2ccccc2)CC1 (stereo not given) | active: 1.03 µM | – |
| COc1ccc(N2CC3=C(C2=O)C(c2ccc(O)c(OC)c2)NC(=O)N3C)cc1 (stereo not given) | inactive | – |
| CC(C)(C)NC(=O)C(C1CC1)n1c(=O)c(-c2ccco2)nc2ccccc21 (stereo not given) | inactive | – |
| COc1ccccc1NC(=O)c1cc(S(=O)(=O)NCc2ccccc2)ccc1F | inconclusive: 29.1 µM [cytotoxic, single point] | – |
| CCOc1ccc2c(c1)-c1c(ssc1=S)C(C)(C)N2C | inconclusive: 29.1 µM [cytotoxic, single point] | – |
| O=C(N/N=C/c1cccs1)c1cc(-c2ccncc2)nc2ccccc12 | inconclusive: 580 µM [cytotoxic, full curve, poor fit] | – |
| COC(=O)c1[nH]c2ccc(C)cc2c1NC(=O)CN1CCN(c2ccccc2)CC1 | inconclusive: 25.9 µM [cytotoxic, single point] | – |
| CC1(C(=O)NS(=O)(=O)C2CC2)CCN(C(=O)c2ccc(F)c(Cl)c2)C1 (stereo not given) | inactive | – |
| CCOC(=O)c1c(-c2ccc(C)o2)csc1NC(=S)NC(=O)c1cccs1 | inconclusive: 29.1 µM [cytotoxic, single point] | – |
| COC(=O)[C@]12CCCCC=C1N(Cc1cccc3ccccc13)C(=O)[C@H](CC(=O)NCc1cccc3ccccc13)C2 | inactive | – |
| CCCNC(=O)Cn1c(=O)/c(=C\c2ccc(-c3cccc([N+](=O)[O-])c3)o2)s/c1=C\C(=O)C(C)(C)C | inconclusive: 23.1 µM [rising, partial curve, poor fit] | – |
| N#CC1=C(N)Oc2cc(N)ccc2C1c1ccc(F)cc1F (stereo not given) | inconclusive: 20.6 µM [cytotoxic, single point] | – |
| Cc1nc2ccc(NC(=O)c3ccco3)cc2s1 | inactive | – |
| CC1(C)CN(O)CCN1O | inconclusive: 14.6 µM [rising, single point] | – |
| CC(C)Cn1c(N)c(C(=O)COC(=O)/C=C/c2cccs2)c(=O)n(C)c1=O | inactive | – |
| FC(F)(F)c1cccc(CON=C2CCN(c3ncc(C(F)(F)F)cc3Cl)CC2)c1 | inconclusive: 18.4 µM [cytotoxic, partial curve, poor fit] | – |
| COc1cc(S(=O)(=O)Nc2ccc(C)cc2)ccc1N=Cc1c(C)c(C#N)c(=O)n(C)c1O | – | inconclusive: -22.2% |
| CS(=O)(=O)c1nc(-c2ccc(F)cc2)cc(C(F)(F)F)n1 | inconclusive: 16.4 µM [cytotoxic, single point] | – |
| CNC(=O)Nc1cc(C)nn1C | inactive | – |
| COc1ccc(Nc2ncnc3scc(-c4ccc(OC)cc4)c23)cc1 | active: 4.11 µM | – |
| CC(=O)Nc1ccc(S(=O)(=O)NCc2csc(-c3cccnc3)n2)cc1 | inactive | – |
| CCOC(=O)N1CCN(C2=C(NS(=O)(=O)c3ccc(Br)cc3)C(=O)c3ccccc3C2=O)CC1 | inconclusive: 16.4 µM [cytotoxic, single point] | – |
| COc1cc(-c2cc(C(=O)NCc3ccc(S(N)(=O)=O)cc3)c3ccccc3n2)cc(OC)c1OC | inconclusive: 14.6 µM [cytotoxic, partial curve, poor fit] | – |

Single entries from the results shown.
Entry for CC(C)(C)NC(=O)C(C1CC1)n1c(=O)c(-c2ccco2)nc2ccccc21 (stereo not given) under Potency: inactive
Entry for COc1cc(-c2cc(C(=O)NCc3ccc(S(N)(=O)=O)cc3)c3ccccc3n2)cc(OC)c1OC under Potency: inconclusive: 14.6 µM [cytotoxic, partial curve, poor fit]
Entry for COC(=O)c1[nH]c2ccc(C)cc2c1NC(=O)CN1CCN(c2ccccc2)CC1 under Potency: inconclusive: 25.9 µM [cytotoxic, single point]

Following part:

| SMILES | Potency | activity change, negative = cytotoxic |
| --- | --- | --- |
| CN(Cc1ccccc1)C(=O)[C@@H]1CCCN1C(=O)[C@@H]1CCCN1C(=O)c1cccc2ccccc12 | inactive | – |
| CN(C)CCN(Cc1cc2cc3c(cc2[nH]c1=O)OCCO3)C(=S)NCC1CCCO1 (stereo not given) | inactive | – |
| COC(=O)c1ccccc1-c1ccc(C(c2c(C)[nH][nH]c2=O)c2c(C)[nH][nH]c2=O)o1 | inconclusive: 29.1 µM [cytotoxic, single point] | – |
| O=C(NCCN1CCOCC1)c1ccccc1N1C(=O)[C@@H]2Cc3c([nH]c4ccccc34)C(c3ccc(F)cc3)N2C1=O (stereo not given in full) | inactive | – |
| CCOc1ccc(S(=O)(=O)N2CCN(C(=O)c3ccc(C)c(S(=O)(=O)N4CCOCC4)c3)CC2)cc1 | inconclusive: 20.6 µM [cytotoxic, single point] | – |
| Cc1onc(-c2ccccc2)c1C(=O)N/N=C/c1c(F)cccc1Cl | inconclusive: 29.1 µM [rising, single point] | – |
| C[C@H](CO)N1C[C@H](C)[C@@H](CN(C)Cc2ccc(Cl)c(Cl)c2)OCc2cnnn2CCCC1=O | inconclusive: 1.46 µM [rising, full curve] | – |
| CCC1(C)Cc2c(sc3[nH]c(=S)n(Cc4ccccc4)c(=O)c23)CO1 (stereo not given) | inconclusive: 20.6 µM [cytotoxic, single point] | – |
| OC1(c2ccccc2)CC(c2ccccc2)c2ccccc2O1 (stereo not given) | inconclusive: 29.1 µM [cytotoxic, single point] | – |
| NC(=O)C1(NC2CCCCC2)CCN(Cc2ccccc2)CC1 | – | inconclusive: -11% |
| COc1ccc(CCNC(=O)COc2ccc(-c3ccc(C#N)cc3)cc2)cc1 | inactive | – |
| COc1ccc(NC(=O)CC2C(=O)N(c3cccc(OC)c3)C(=O)N2Cc2ccco2)cc1 (stereo not given) | inconclusive: 0.013 µM [cytotoxic, full curve] | – |
| COc1ccc(NS(=O)(=O)c2cc(NC(=O)c3sccc3C)ccc2N2CCOCC2)cc1 | active: 7.31 µM | – |
| COc1ccc(NC(=O)CSc2nnc(-c3ccc(OC)cc3)s2)cc1 | inactive | – |
| COc1cc(NC(=O)c2ccc(Cl)cc2)c2ncccc2c1 | inactive | – |
| COc1ccc(N(CC(=O)NCc2ccccc2Cl)S(=O)(=O)c2c(C)[nH]c(=O)[nH]c2=O)cc1 | inactive | – |
| CCOC(=O)CC(=O)CSc1nc2c(cc1C#N)CCCCC2 | inactive | – |
| Cc1ccccc1OCCOC(=O)c1cc(S(=O)(=O)N2CCCCC2)ccc1N1CCOCC1 | inconclusive: 29.1 µM [cytotoxic, single point] | – |
| COc1ccc(C2=NCC(CSc3nnc(-c4ccc5c(c4)OCO5)o3)S2)cc1 (stereo not given) | inconclusive: 29.1 µM [cytotoxic, single point] | – |
| CC(C)C(=O)Nc1nc2c(ncn2[C@H]2CC(O)[C@@H](CO)O2)c(=O)[nH]1 (stereo not given in full) | inconclusive: 29.1 µM [cytotoxic, single point] | – |
| O=C(COC(=O)C1C2CC3OC(=O)C1C3C2)Nc1ccccc1 (stereo not given) | inconclusive: 29.1 µM [rising, single point] | – |
| O=C(CN1C(=O)c2ccccc2S1(=O)=O)Nc1ncccn1 | – | inconclusive: 10.5% |
